According to the supplement of paper PMC12067093, “Discovery and optimisation of a covalent ligand for TRIM25 and its application to targeted protein ubiquitination” (Chemical Science, 2025):
Some of the results follow.

Amino acid sequences for entries named in this document (tags omitted). A change or cut given only in a name is not applied to a line headed by its entry.
UniProt Q92835: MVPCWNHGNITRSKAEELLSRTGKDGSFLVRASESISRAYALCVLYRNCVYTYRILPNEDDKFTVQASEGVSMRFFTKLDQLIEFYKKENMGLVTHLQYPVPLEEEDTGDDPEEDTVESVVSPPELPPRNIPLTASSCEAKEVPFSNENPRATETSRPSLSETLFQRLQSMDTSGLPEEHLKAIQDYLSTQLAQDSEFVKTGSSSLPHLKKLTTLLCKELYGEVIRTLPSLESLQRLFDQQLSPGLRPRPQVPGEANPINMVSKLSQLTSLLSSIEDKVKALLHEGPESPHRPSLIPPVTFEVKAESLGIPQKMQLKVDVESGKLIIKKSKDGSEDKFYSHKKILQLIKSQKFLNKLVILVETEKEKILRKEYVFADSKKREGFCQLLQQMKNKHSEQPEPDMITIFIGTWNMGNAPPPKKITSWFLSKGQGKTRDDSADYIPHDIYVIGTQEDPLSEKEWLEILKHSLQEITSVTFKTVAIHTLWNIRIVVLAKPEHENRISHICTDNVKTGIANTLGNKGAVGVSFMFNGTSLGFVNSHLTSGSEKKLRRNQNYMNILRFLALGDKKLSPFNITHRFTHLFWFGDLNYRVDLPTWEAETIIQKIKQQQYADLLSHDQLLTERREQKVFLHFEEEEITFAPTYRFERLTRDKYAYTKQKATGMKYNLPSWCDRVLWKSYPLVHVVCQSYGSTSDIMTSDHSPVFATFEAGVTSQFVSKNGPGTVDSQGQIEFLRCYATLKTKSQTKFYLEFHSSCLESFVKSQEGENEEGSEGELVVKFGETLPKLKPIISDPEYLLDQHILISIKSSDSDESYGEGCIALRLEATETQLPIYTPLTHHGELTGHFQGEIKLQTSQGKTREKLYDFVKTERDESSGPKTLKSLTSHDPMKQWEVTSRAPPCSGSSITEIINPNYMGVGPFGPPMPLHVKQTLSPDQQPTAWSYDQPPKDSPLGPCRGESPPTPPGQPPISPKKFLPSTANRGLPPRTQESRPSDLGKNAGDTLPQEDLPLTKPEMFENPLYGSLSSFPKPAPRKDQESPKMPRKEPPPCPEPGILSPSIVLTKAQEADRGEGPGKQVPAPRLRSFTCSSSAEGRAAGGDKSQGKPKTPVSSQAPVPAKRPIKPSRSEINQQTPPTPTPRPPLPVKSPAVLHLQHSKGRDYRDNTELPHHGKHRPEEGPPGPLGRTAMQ
UniProt Q9UI26: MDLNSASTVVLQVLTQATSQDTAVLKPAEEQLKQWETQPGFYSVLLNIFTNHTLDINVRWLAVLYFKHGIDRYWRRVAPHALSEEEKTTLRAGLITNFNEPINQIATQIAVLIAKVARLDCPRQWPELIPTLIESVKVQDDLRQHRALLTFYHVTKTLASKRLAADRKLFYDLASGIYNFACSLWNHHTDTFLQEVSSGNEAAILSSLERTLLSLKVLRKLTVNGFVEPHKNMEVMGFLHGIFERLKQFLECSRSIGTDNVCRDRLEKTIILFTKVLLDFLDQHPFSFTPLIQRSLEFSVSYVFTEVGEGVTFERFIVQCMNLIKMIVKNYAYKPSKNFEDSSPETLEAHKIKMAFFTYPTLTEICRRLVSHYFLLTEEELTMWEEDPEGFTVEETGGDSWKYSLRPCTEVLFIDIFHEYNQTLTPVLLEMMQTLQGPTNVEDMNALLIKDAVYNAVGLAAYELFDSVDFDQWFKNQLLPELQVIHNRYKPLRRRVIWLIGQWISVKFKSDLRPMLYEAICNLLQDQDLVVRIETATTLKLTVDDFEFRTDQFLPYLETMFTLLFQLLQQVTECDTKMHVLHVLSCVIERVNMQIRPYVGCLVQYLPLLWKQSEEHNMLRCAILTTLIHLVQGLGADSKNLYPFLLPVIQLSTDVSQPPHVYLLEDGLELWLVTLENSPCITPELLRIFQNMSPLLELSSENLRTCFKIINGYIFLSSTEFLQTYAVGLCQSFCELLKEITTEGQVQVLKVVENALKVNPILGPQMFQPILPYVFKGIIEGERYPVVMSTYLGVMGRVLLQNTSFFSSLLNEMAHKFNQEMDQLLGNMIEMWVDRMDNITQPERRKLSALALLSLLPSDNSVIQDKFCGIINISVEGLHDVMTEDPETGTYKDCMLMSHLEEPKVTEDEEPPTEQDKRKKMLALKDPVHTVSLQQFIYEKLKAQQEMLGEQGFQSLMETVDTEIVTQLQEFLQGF
UniProt O00410: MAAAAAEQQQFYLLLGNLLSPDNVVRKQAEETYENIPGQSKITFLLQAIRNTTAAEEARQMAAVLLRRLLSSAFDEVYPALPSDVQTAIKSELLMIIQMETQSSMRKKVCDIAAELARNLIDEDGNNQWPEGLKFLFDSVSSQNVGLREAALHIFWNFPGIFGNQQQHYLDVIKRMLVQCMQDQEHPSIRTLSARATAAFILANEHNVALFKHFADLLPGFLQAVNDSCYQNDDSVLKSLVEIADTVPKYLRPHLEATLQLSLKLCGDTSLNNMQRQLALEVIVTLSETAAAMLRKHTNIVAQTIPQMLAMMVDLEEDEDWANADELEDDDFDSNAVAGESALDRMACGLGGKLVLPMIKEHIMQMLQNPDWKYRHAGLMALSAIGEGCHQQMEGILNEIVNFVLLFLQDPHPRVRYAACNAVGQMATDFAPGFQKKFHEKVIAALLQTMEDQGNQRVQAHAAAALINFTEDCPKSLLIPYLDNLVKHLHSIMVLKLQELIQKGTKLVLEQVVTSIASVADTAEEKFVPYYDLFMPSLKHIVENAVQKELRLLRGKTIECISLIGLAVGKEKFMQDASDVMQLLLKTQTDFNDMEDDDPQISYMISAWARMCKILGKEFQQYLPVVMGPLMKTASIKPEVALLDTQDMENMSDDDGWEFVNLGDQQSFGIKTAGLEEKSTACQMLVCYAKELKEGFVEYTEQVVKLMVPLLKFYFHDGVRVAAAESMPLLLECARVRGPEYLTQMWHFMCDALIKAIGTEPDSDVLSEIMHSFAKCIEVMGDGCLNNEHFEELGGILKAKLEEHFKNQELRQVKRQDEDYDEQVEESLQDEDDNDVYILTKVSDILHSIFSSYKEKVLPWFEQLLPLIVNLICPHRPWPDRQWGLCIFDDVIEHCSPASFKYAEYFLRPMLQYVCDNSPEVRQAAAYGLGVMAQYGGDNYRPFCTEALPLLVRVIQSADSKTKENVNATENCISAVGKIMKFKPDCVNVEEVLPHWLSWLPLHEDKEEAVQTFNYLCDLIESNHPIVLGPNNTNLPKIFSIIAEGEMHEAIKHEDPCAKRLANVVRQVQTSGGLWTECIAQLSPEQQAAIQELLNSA
UniProt P48200: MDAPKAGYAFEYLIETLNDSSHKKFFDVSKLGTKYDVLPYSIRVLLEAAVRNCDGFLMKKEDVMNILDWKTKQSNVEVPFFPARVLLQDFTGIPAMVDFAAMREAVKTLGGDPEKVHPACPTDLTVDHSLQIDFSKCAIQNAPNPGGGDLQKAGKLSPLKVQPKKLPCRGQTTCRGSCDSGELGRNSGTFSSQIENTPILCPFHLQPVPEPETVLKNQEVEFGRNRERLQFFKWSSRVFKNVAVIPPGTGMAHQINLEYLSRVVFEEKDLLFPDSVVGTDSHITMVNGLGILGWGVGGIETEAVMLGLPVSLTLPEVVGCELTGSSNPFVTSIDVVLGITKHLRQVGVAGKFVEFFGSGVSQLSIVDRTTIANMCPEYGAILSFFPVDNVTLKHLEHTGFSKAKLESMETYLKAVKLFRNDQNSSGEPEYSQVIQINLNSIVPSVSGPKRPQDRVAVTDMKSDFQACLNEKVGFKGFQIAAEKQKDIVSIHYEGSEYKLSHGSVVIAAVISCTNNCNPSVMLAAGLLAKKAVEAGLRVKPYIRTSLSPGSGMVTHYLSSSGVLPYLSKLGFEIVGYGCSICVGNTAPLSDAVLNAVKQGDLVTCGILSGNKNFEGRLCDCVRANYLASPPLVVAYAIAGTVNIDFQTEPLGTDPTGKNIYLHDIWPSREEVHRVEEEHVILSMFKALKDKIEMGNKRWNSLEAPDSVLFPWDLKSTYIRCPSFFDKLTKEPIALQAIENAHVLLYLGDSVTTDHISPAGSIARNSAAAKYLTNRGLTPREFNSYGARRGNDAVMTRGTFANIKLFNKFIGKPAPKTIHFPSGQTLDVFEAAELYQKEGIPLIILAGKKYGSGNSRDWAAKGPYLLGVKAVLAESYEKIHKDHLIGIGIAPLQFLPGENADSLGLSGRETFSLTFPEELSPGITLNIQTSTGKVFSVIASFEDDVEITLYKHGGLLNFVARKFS
UniProt Q9Y616: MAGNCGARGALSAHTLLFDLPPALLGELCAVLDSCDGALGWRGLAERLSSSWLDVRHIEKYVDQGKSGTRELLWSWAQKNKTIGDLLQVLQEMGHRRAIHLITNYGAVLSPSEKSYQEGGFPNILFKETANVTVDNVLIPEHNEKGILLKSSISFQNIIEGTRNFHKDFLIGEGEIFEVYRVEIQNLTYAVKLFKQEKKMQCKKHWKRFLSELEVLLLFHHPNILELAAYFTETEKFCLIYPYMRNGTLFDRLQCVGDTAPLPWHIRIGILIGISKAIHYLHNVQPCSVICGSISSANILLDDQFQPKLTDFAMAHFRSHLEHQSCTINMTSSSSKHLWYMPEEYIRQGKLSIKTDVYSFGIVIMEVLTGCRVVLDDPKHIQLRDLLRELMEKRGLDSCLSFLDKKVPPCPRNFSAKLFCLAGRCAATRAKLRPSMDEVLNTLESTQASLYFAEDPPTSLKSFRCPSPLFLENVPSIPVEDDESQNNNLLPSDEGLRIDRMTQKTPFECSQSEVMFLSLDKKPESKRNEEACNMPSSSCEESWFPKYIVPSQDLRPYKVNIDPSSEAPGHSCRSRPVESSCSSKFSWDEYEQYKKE
UniProt P46940, whole entry, looked up: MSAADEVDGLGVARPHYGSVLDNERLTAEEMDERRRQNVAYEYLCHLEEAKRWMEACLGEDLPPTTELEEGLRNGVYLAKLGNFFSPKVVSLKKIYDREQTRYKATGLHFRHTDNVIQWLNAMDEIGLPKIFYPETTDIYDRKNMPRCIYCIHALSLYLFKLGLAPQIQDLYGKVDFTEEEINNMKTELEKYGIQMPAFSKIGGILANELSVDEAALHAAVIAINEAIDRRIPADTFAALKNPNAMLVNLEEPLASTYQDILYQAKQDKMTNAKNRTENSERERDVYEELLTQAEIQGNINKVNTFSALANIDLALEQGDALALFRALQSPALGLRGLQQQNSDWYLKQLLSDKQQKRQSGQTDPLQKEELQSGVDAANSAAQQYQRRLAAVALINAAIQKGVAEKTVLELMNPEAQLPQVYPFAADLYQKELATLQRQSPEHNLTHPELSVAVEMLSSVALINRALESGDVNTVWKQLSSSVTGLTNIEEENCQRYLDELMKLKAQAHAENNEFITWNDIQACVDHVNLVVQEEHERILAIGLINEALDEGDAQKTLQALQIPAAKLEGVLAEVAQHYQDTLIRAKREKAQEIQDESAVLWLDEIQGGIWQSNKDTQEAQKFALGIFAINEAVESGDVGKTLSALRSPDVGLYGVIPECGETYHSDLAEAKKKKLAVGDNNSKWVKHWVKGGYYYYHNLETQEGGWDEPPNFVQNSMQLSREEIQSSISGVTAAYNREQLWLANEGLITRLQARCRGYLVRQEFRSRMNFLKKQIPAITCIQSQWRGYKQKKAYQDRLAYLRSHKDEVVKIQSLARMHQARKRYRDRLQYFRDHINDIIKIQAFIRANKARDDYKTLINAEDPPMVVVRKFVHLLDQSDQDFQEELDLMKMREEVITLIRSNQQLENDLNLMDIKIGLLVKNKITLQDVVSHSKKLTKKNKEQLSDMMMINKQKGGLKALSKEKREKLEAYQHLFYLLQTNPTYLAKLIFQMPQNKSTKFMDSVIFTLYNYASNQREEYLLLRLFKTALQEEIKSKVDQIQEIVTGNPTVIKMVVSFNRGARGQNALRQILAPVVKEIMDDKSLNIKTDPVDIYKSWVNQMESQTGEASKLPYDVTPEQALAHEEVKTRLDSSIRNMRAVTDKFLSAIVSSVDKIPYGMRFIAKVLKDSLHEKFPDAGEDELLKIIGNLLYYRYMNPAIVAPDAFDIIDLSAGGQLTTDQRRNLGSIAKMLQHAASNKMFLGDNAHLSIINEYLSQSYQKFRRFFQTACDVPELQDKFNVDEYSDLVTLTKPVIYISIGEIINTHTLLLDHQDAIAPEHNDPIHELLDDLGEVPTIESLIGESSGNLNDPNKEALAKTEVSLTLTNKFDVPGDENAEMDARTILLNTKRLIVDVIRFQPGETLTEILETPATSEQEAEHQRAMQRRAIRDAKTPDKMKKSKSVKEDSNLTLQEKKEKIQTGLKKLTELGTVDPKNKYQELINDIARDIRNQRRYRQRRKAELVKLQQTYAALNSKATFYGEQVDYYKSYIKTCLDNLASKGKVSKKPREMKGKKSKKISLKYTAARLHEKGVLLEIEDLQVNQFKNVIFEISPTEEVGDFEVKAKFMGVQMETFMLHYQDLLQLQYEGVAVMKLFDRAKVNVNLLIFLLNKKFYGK

Compound: CC1Cc2ccccc2N1C(=O)C1CCCN(C1)C(=O)CCl (mixture of isomers) [TRIM25 ligand 11 (diastereomer mixture)]
Experiment: probe-labelled cysteine peptide fold change vs DMSO (competition) (log2 fold change); higher = less target engagement (more negative = stronger competition)
Details: THP-1, incubation time: 4 h
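Also: competitive chemoproteomic profiling in live THP-1 cells with an iodoacetamide desthiobiotin (IA-DTB) probe, comparing probe-labelled peptide intensities in compound-treated cells against DMSO-treated controls.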

| Target | probe-labelled cysteine peptide fold change (10 µM) | probe-labelled cysteine peptide fold change (50 µM) |
| --- | --- | --- |
| IPO4_Q8TEX9_269_ILCCLTFLVK (UniProt Q8TEX9) | -0.308 | 0.145 |
| IPO4_Q8TEX9_95_ETEHCVSLSLAQLSATIFRK (UniProt Q8TEX9) | -0.09 | 0.0344 |
| IQSEC2_Q5JU85_821_DVLDCVVDEMDFSSMDLDDALRK (UniProt Q5JU85) | 0.0671 | -0.151 |
| IPO9_Q96P70_90_QYVETHWCAQSEK (UniProt Q96P70) | 0.0199 | -0.0142 |
| INTS6_Q9UL03_347_KSPQTCWQVYVSNSAK (UniProt Q9UL03) | 0.0646 | 0.0812 |
| IPO4_Q8TEX9_566+574_AVGEPMRPLAEECCQLGLGLCDQVDDPDLRR (UniProt Q8TEX9) | 0.00426 | -0.00248 |
| INPP5D_Q92835_217_KLTTLLCK (UniProt Q92835) | 0.0372 | 0.0472 |
| ITGB2_P05107_497_SSQELEGSCR (UniProt P05107) | 0.0344 | 0.0786 |
| INTS13_Q9NVM9_494_ESLTEEDVLNCQK (UniProt Q9NVM9) | -0.166 | 0.107 |
| IPO11_Q9UI26_894_DCMLMSHLEEPK (UniProt Q9UI26) | -0.13 | -0.393 |
| IRF5_Q13568_272_ALTISNPHGCR (UniProt Q13568) | 0.148 | 0.185 |
| ITGB1_P05556_301_LGGIVLPNDGQCHLENNMYTMSHYYDYPSIAHLVQK (UniProt P05556) | -0.0205 | 0.00143 |
| IPO11_Q9UI26_894_DCMLMSHLEEPKVTEDEEPPTEQDKR (UniProt Q9UI26) | -0.125 | -0.395 |
| INTS13_Q9NVM9_349_ISPVDVNSRPSSCLTNFLLNGR (UniProt Q9NVM9) | 0.0201 | -0.178 |
| INTS3_Q68E01_843_YKEHPEALSCLLLQLR (UniProt Q68E01) | -0.202 | -0.197 |
| IPO4_Q8TEX9_350_LCPQLMPMLEEALR (UniProt Q8TEX9) | 0.0945 | -0.122 |
| IRF2BP1_Q8IU81_546_AQGPAGEVYCPSGDK (UniProt Q8IU81) | -0.121 | -0.00493 |
| INPP5D_Q92835_956_DSPLGPCR (UniProt Q92835) | -0.0931 | -0.139 |
| IPO5_O00410_682_STACQMLVCYAK (UniProt O00410) | 0.0588 | 0.0264 |
| INPP5D_Q92835_385_EGFCQLLQQMK (UniProt Q92835) | 0.00866 | -0.134 |
| ITGB2_P05107_573+575_CHPGFEGSACQCER (UniProt P05107) | -0.0805 | 0.129 |

| Target | probe-labelled cysteine peptide fold change (10 µM) | probe-labelled cysteine peptide fold change (50 µM) |
| --- | --- | --- |
| IRF2BP2_Q7Z5L9_37_MPWAMIWDFTEPVCR (UniProt Q7Z5L9) | 0.189 | 0.103 |
| ITGA4_P13612_861_VCALEQQK (UniProt P13612) | -0.00319 | 0.157 |
| IREB2_P48200_178_GSCDSGELGR (UniProt P48200) | 0.0878 | -0.123 |
| IPO4_Q8TEX9_708_LLECPHLNVR (UniProt Q8TEX9) | 0.0843 | -0.118 |
| IRF2BP1_Q8IU81_518_ERLEDTHFVQCPSVPGHK (UniProt Q8IU81) | -0.184 | -0.254 |
| INTS10_Q9NVR2_176_LFVCDVLPLIINNHDVR (UniProt Q9NVR2) | 0.0398 | 0.23 |
| IPO7_O95373_477+484_ACWVLHYFCEVK (UniProt O95373) | 0.0454 | 0.252 |
| IRF2BP1_Q8IU81_363_EPAPAEALPQQYPEPAPAALCGPPPR (UniProt Q8IU81) | 0.0731 | -0.0622 |
| INSR_P06213_899_RYGDEELHLCVSR (UniProt P06213) | -0.0393 | 0.125 |
| ITGAL_P20701_845_PHSQIPVSCEELPEESR (UniProt P20701) | -0.0366 | -0.035 |
| ITGAM_P11215_144_GCPQEDSDIAFLIDGSGSIIPHDFRR (UniProt P11215) | 0.35 | 0.0336 |
| INTS1_Q8N201_1534_SGEQCSVEPDLISK (UniProt Q8N201) | 0.0117 | 0.086 |
| IRAK3_Q9Y616_532_RNEEACNMPSSSCEESWFPK (UniProt Q9Y616) | 0.0201 | -0.23 |
| INPP5D_Q92835_819_SSDSDESYGEGCIALR (UniProt Q92835) | -0.0674 | -0.00858 |
| IRF8_Q02556_223_LVGQATTTCPEGCR (UniProt Q02556) | 0.201 | 0.203 |
| INTS4_Q96HW7_44_SAALHIDLCK (UniProt Q96HW7) | 0.139 | -0.0645 |
| ITGB2_P05107_62_CDTRPQLLMR (UniProt P05107) | -0.083 | -0.121 |
| INPPL1_O15357_405_EAFCQLLQLMK (UniProt O15357) | -0.09 | -0.0221 |
| ITGAX_P20702_722_AHCENFNLLLPSCVEDSVTPITLR (UniProt P20702) | -0.0743 | 0.357 |
| ISCU_Q9H1K1_130_ELCLPPVK (UniProt Q9H1K1) | -0.0861 | 0.12 |
| ITGB1_P05556_75_GCPPDDIENPR (UniProt P05556) | -0.104 | 0.0494 |

| Target | probe-labelled cysteine peptide fold change (10 µM) | probe-labelled cysteine peptide fold change (50 µM) |
| --- | --- | --- |
| IQGAP2_Q13576_1183_EACNVPEPEEK (UniProt Q13576) | -0.149 | -0.119 |
| IRS2_Q9Y4H2_409_SHTLSGGCGGR (UniProt Q9Y4H2) | 0.0411 | -0.153 |
| ISG20L2_Q9H9L3_295_ADCPENATMSLK (UniProt Q9H9L3) | 0.109 | 0.0246 |
| IPO5_O00410_750_GPEYLTQMWHFMCDALIK (UniProt O00410) | 0.259 | 0.22 |
| IQGAP1_P46940_660_SPDVGLYGVIPECGETYHSDLAEAKK (UniProt P46940) | -0.304 | -0.189 |
| INTS1_Q8N201_1433_SHFLACPLLR (UniProt Q8N201) | -0.0305 | 0.0859 |
| INTS13_Q9NVM9_120_ADPECCSILHGLVAAVETLCK (UniProt Q9NVM9) | 0.0697 | -0.0596 |
| INTS10_Q9NVR2_169_RFPETVVQHGVGLGEALLEAETIEEQESPVNCFR (UniProt Q9NVR2) | 0.0065 | -0.199 |
| INTS14_Q96SY0_193_LIDLNNGEGQIFTIDGPLCLK (UniProt Q96SY0) | -0.00669 | 0.031 |
| INPP5D_Q92835_1088_SFTCSSSAEGR (UniProt Q92835) | -0.137 | -0.261 |
| IPO7_O95373_504_CLIDDR (UniProt O95373) | 0.0495 | 0.164 |
| IPO8_O15397_749_LLEVIILQCK (UniProt O15397) | 0.0753 | 0.0201 |
| INTS13_Q9NVM9_556_VLECLMACR (UniProt Q9NVM9) | -0.0972 | 0.0314 |
| IRF2BP1_Q8IU81_36_GCVNFEGADR (UniProt Q8IU81) | -0.0621 | 0.0398 |
| IRF2BP2_Q7Z5L9_65_RAHGCFPEGR (UniProt Q7Z5L9) | -0.103 | -0.0555 |
| IRAK3_Q9Y616_399_RGLDSCLSFLDK (UniProt Q9Y616) | 0.0985 | 0.142 |
| INTS12_Q96CB8_209_LVWYCAR (UniProt Q96CB8) | -0.208 | -0.0997 |
| ITGB2_P05107_549_YNGQVCGGPGR (UniProt P05107) | -0.0614 | 0.0801 |
| IRF5_Q13568_44_KLFCIPWR (UniProt Q13568) | -0.551 | -0.367 |
| ISOC2_Q96AB3_136_GLQVHVVVDACSSR (UniProt Q96AB3) | -0.181 | -0.134 |
| INTS11_Q5TA45_542_DHCVQHLPDGSVTVESVLLQAAAPSEDPGTK (UniProt Q5TA45) | 0.0652 | 0.0512 |

| Target | probe-labelled cysteine peptide fold change (10 µM) | probe-labelled cysteine peptide fold change (50 µM) |
| --- | --- | --- |
| IPMK_Q8NFU5_373_VFYHLPTGCQEIAEVEVR (UniProt Q8NFU5) | 0.0303 | -0.136 |
| INTS3_Q68E01_80_EANDALNAYVCK (UniProt Q68E01) | -0.0752 | -0.0832 |
| IRF2BP2_Q7Z5L9_16_RQSCYLCDLPR (UniProt Q7Z5L9) | -0.0675 | 0.0102 |
| ITGAM_P11215_144_GCPQEDSDIAFLIDGSGSIIPHDFR (UniProt P11215) | 0.346 | 0.196 |
| IPO7_O95373_504_CLIDDREMPVK (UniProt O95373) | -0.299 | -0.0557 |
| INTS3_Q68E01_843_EHPEALSCLLLQLR (UniProt Q68E01) | 0.0972 | 0.175 |
| ITGB2_P05107_36_ECIESGPGCTWCQK (UniProt P05107) | 0.261 | 0.0865 |
| IPO4_Q8TEX9_574_AVGEPMRPLAEECCQLGLGLCDQVDDPDLRR (UniProt Q8TEX9) | 0.0522 | -0.0355 |
| IPO4_Q8TEX9_400_LLPPLLQIVCK (UniProt Q8TEX9) | -0.0729 | 0.13 |
| IPO7_O95373_757_GIDQCIPLFVEAALER (UniProt O95373) | 0.0116 | -0.524 |
| IQGAP1_P46940_660_SPDVGLYGVIPECGETYHSDLAEAK (UniProt P46940) | -0.0642 | -0.179 |
| ITGAL_P20701_1154_GVPNGIPAEDSEQLASGQEAGDPGCLKPLHEK (UniProt P20701) | -0.0824 | -0.106 |
| IPO5_O00410_473_VQAHAAAALINFTEDCPK (UniProt O00410) | -0.0774 | 0.0903 |
| INTS9_Q9NV88_391_QPCVVFTGHPSLR (UniProt Q9NV88) | 0.32 | 0.146 |
| IPO5_O00410_266_LCGDTSLNNMQR (UniProt O00410) | -0.0465 | 0.182 |
| IREB2_P48200_720_CPSFFDK (UniProt P48200) | -0.0311 | -0.15 |
| ITFG2_Q969R8_326_LDVTGNGHEEVVACAWDGQTYIIDHNR (UniProt Q969R8) | -0.0863 | -0.072 |
| INTS8_Q75QN2_295_ELIAEIGSLSLHCTIDEK (UniProt Q75QN2) | 0.322 | -0.0734 |
| ITGB1_P05556_516_HCECSTDEVNSEDMDAYCR (UniProt P05556) | -0.118 | -0.0717 |
| IPO4_Q8TEX9_726_AAHEALGQFCCALHK (UniProt Q8TEX9) | 0.0808 | 0.0814 |
| IRF2BP2_Q7Z5L9_19_RQSCYLCDLPR (UniProt Q7Z5L9) | -0.0676 | 0.0609 |

5 entries from above, bar-delimited:
Target | probe-labelled cysteine peptide fold change (10 µM) | probe-labelled cysteine peptide fold change (50 µM)
IRF2BP2_Q7Z5L9_16_RQSCYLCDLPR (UniProt Q7Z5L9) | -0.0675 | 0.0102
ITGAM_P11215_144_GCPQEDSDIAFLIDGSGSIIPHDFR (UniProt P11215) | 0.346 | 0.196
IPO7_O95373_504_CLIDDREMPVK (UniProt O95373) | -0.299 | -0.0557
INTS3_Q68E01_843_EHPEALSCLLLQLR (UniProt Q68E01) | 0.0972 | 0.175
ITGB2_P05107_36_ECIESGPGCTWCQK (UniProt P05107) | 0.261 | 0.0865
